In patent US20260158149A1, “GLYCOSYLATED PRODRUGS” (UNIVERSITEIT LEIDEN, priority 2021, published 2026):
Entries after “also recorded” stand apart in the source; their conditions may differ. At least one structure is not confirmed: it was looked up by name or label, or the drawing left a doubt.

What was measured:
[1] = test system: neutrophils migrated to the wounded area; assay: Tail fin amputation assay: neutrophil migration to the wounded area; type: in vivo, Zebrafish (Danio rerio)
Protocol: Zebrafish (Danio rerio) were maintained and handled according to the guidelines from the Zebrafish Model Organism Database (https://zfin.org/) and in compliance with the directives of the local animal welfare committee of Leiden University. To maintain circadian rhythmicity, adult fish were exposed to a 14 h light and 10 h dark cycle. Fertilization was performed by natural spawning at the beginning of the light period. Fertilized eggs were collected and raised at 28° C. in egg water (60 μg/ml Instant Ocean sea salts and 0.0025% methylene blue). […]
(§1) For the tail fin amputation experiments, 3 days post fertilization (dpf) larvae from the Tg(mpx:GFP^i114/mpeg1:mCherry^umsF001) line were anesthetized in 0.02% buffered aminobenzoic acid ethyl ester (tricaine) in egg water and placed on a 2% agarose-coated petri dish. […] For imaging of larvae from the Tg(mpx:GFP^i114/mpeg1:mCherry^umsF001) line, a LeicaMZ16FA fluorescence stereomicroscope with LAS 3.7 software was used. Neutrophils were detected by GFP fluorescence and macrophages by mCherry fluorescence. The neutrophil numbers were determined by blinded manual counting in a pre-determined area. […]

[2] = test system: il1b, il6, mmp9, mmp13, il8 mRNA; assay: qPCR of pro-inflammatory genes after tail wounding; type: in vivo, Zebrafish (Danio rerio)
Source text: as §1, with “dish. The tails were partially amputated with a 1 mm sapphire blade (World Precision Instruments) under a Leica M165C stereomicroscope (Leica Microsystems, Wetzlar, Germany).” for “dish.”
For experiments in zebrafish, gene expression was measured using 3 dpf embryos. […] Cycle threshold values (Ct values, i.e. the cycle numbers at which a threshold value of the fluorescence intensity was reached) were determined for each sample. […] The fold change per sample (compared to the respective control group) was calculated using the ΔΔCt method.

C[C@@H]1C[C@H]2[C@@H]3CCC4=CC(=O)C=C[C@]4(C)[C@@]3(F)[C@@H](O)C[C@]2(C)[C@@]1(O)C(=O)CO [Dex, dexamethasone]
inhibition of neutrophil migration in Gr deficient larvae ([1]; gr mutant line (gr-/-)): absent | migration of neutrophils towards the wounded area ([1]; wild type larvae, 4 h after tail wounding): inhibits neutrophil migration; also recorded: inhibited the neutrophil migration | wounding-induced increase in expression of il1b, il6, mmp9 and mmp13 [2]: reduction
